Assay results published in patent publication US20240299452A1, “Rapamycin and Cell Therapy” (Innovative Cellular Therapeutics Holdings, Ltd., priority 2023, published 2024).
At least one structure is not confirmed: it was looked up by name or label, or the drawing left a doubt.

Assays:
[1] = tested on: prostate cancer tumor cells (PC3); assay: RT-PCR gene expression in tumor cells treated with rapamycin; format: cell-based
[2] = tested on: CD19 CAR T cells stimulated with nalm6 cells; assay: Activation, exhaustion and memory marker expression in CAR T cells treated with rapamycin; format: cell-based; details: rapamycin ⅓ Cmax
[3] = tested on: prostate cancer; assay: PSA levels in patients infused with PAP CAR T cells with or without rapamycin; format: in vivo, human; details: Group 2 (Patient 04) PAP CAR T cells with rapamycin; Group 1 (Patients 01-03) PAP CAR T cells without rapamycin
[4] = tested on: LNCAP; assay: Tumor cell proliferation by cell counting after trypsin digestion; format: cell-based; details: all three rapamycin concentrations
[5] = tested on: CD19 CAR T cells stimulated with nalm6 cells; assay: Cytokine release assay of CAR T cells treated with rapamycin; format: cell-based; details: rapamycin ⅓ Cmax, 3×Cmax, dose-dependent
[6] = tested on: PC3; assay: Tumor cell proliferation by cell counting after trypsin digestion; format: cell-based; details: all three rapamycin concentrations
[7] = PC3, 48 hours after administering rapamycin, versus PBS control
[8] = PC3, 72 hours after removing rapamycin
[9] = PC3, ⅓ Cmax rapamycin, 48 hours, versus PBS control

## CO[C@H]1C[C@@H]2CC[C@@H](C)[C@@](O)(O2)C(=O)C(=O)N2CCCC[C@H]2C(=O)O[C@H]([C@H](C)C[C@@H]2CC[C@@H](O)[C@H](OC)C2)CC(=O)[C@H](C)/C=C(\C)[C@@H](O)[C@@H](OC)C(=O)[C@H](C)C[C@H](C)/C=C/C=C/C=C/1C [rapamycin, Rapamycin]
[1]; [7]
  FAS gene expression: elevated expression
  JAK gene expression: elevated expression
[1]; [8]
  expression levels of most genes: returned to levels comparable to the control group
  intracellular signaling components (such as JAK-STAT) expression: remained elevated
[1]; PC3, 72 hours after stopping rapamycin (FIG. 18 right chart)
  IFNGR1/2 and JAK-STAT signaling levels: decrease but remain above control levels
[1]; [9]
  B2M gene expression: increased
  IFNGR1/2 gene expression: increased
  P53 gene expression: increased
  STAT1 gene expression: increased
  STAT2 gene expression: increased
[2]; 3×Cmax (about 5.33, 16, 48 nM) with nalm6 stimulation
  CAR+/CD137+ activation marker expression: reduction
[2]; 3×Cmax with nalm6 stimulation
  CAR+/CD40L+ activation marker expression: decrease in expression
  CAR+/PD1+ exhaustion marker expression: reduced
  CD62L memory marker expression (CD62L+/CD45RO+): increase
[3]
  PSA level over time: stabilized at a normal level for an extended period
[4]
  tumor cell proliferation: a degree of proliferation inhibition
[5]
  GZMB release from CAR T cells: significant decrease
  IFN-γ release from CAR T cells: significant decrease
  IL-2 release from CAR T cells: significant decrease
  TNF-α release from CAR T cells: significant decrease
[6]
  tumor cell proliferation: a degree of proliferation inhibition
